Numbering of substitutions follows the chain as printed. No constants are given. Whether binding was seen depends on the method and setting. For some of these results: Binding seen in cells or lysates may run through a third protein. Some entries that bind do so weakly or less than the wild type. For some of these results: Tags and fused reporters may be left off the sequences shown. Blank lines part the entries; values can stand above or below the substance they belong to.
Legend:
[1] = biological target: T1, MIA40-Strep (human) (UniProt Q8N4Q1); experiment: co-IP; affinity precipitation of MIA40-Strep with streptactin beads from HEK293 cells after NEM; native lysis; blot for FAM136A
T1 sequence: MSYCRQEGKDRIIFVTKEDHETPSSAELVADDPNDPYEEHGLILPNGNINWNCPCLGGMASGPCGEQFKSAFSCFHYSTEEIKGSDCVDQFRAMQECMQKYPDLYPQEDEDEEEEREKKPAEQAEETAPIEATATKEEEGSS

[2] = biological target: FAM136A (FAM136A-HA and FAM136A-FLAG, co-expressed) (human) (UniProt Q96C01); experiment: co-IP; FAM136A-FLAG precipitated from HEK293 cells co-expressing FAM136A-FLAG and FAM136A-HA, native lysis; blot against HA and FLAG
[3] = biological target: FAM136A-HA (human) (UniProt Q96C01); experiment: cross-linking; intact HEK293 cells expressing FAM136A-HA, disuccinimidyl glutarate (DSG) 0-1000 uM, room temperature, 30 min or other times; stopped with Tris; blot against HA
[4] = biological target: T2, GST-tagged MIA40 F68E (human) (UniProt Q8N4Q1); experiment: pull-down; GST-tagged MIA40 variants or GST on glutathione beads, incubated with radiolabelled in vitro translated FAM136A-HA lysate in IP buffer (100 mM NaCl, 100 mM NaPi, 1 % Triton X-100), 20 min, room temperature; SDS-PAGE and autoradiography; only the target purified
T2 sequence: T1 sequence with F68E

[5] = biological target: T3, GST-tagged MIA40 C4, 53, 55S (SPS) (human) (UniProt Q8N4Q1); experiment: as above
T3 sequence: T1 sequence with C4S, C53S, C55S

[6] = biological target: T4, GST-tagged MIA40 wild-type (human) (UniProt Q8N4Q1); experiment: as above
T4 sequence: T1 sequence

[7] = biological target: T5, MIA40(C4S)-His (human) (UniProt Q8N4Q1); experiment: disulphide-linked complex on non-reducing SDS-PAGE (in vitro oxidation kinetics); 30 uM recombinant MIA40(C4S) mixed with in vitro translated 35S-labelled reduced FAM136A; 30 °C, 1.0 % oxygen; 10 mM EDTA, 200 mM NaCl, 20 mM Tris/Cl pH 7.4; mmPEG12 modification, autoradiography; only the target purified
T5 sequence: T1 sequence with C4S

binding [1]: binds
Substance: FAM136A (from UniProt Q96C01 1-138)

binding [2]: binds
Substance: FAM136A (FAM136A-HA and FAM136A-FLAG, co-expressed) (from UniProt Q96C01 1-138)

binding [3]: binds
Substance: FAM136A-HA (from UniProt Q96C01 1-138)

binding [4]: binds | binding [5]: binds | binding [6]: binds | binding [7]: binds
Substance: [35S]-labelled in vitro translated FAM136A-HA (from UniProt Q96C01 1-138)

Source: article PMC12557607
